{"source": "PubChem BioAssay AID1347423", "about": "(Functional Genomics Laboratory (NCATS/FGL), 2020)", "note": "In all, about 52,000 sequences went through this assay and about 210 (0.4%) were called active.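 Rule for the calls: active = gene whose silencing raises cell survival under the drug, median off-target-corrected z-score across its silencing RNAs 2 or more; inactive = the rest.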 The list shows a part of the results."}
{"assay": "Resistance to Poly (ADP-Ribose) Polymerase inhibitor: Gene Identification via Genome-wide siRNA Screen", "conditions": "mouse BRCA2 R2336H ES cells, olaparib, CellTiter-Glo viability; active compounds read high", "procedure,_shortened": "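Genome-wide siRNA screen (3 siRNAs/gene, 20 nM) in mouse ES cells carrying hypomorphic BRCA2 R2336H; olaparib 500 nM added 48 h post-transfection, CellTiter-Glo viability 72 h later. Normalized to plate-median negative control; MAD z-scores, gene median, seed-adjusted.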"}
{"sequence": "GCCGUUCACUUUUCAGUAUTT against Slc35b3", "z-score": "inactive: -1.56"}
{"sequence": "GGUGUCGAGAAGCCUCAAATT against Arhgap24", "z-score": "inactive: -0.788"}
{"sequence": "GCUGAAACUAACAUUUGAUTT against Anxa3", "z-score": "inactive: -0.872"}
{"sequence": "GGCUGCUCCACCCUAUAAUTT against Sugt1", "z-score": "inactive: -1.61"}
{"sequence": "GGUCCCAGACUGAGUGAAATT against Epo", "z-score": "inactive: 2.32"}
{"sequence": "GGGUUUCAGUCUUCUUAUCTT against Olfr556", "z-score": "inactive: -0.249"}
{"sequence": "GCGGUCUAAGUCCUUUAGCTT against 0610025L06Rik", "z-score": "inactive: -0.245"}
{"sequence": "GGCCACUGGCAAUGAAAAATT against Gata5", "z-score": "inactive: 0.623"}
{"sequence": "GAUCACACUGAAAUCAUCATT against Nudt11", "z-score": "inactive: 1.56"}
{"sequence": "GGUUGGCUUCAAAAAUAUGTT against Psmb1", "z-score": "inactive: -3.41"}
{"sequence": "CGUCCAAGCAUAUAUGAAATT against Slfn8-pending", "z-score": "inactive: -0.306"}
{"sequence": "GGUGUAUGAGGUGCUGCUATT against Ushbp1", "z-score": "inactive: -1.92"}
{"sequence": "CCUGACUCUACAUUUUACATT against 4921526G09Rik", "z-score": "inactive: 1.23"}
{"sequence": "GGUUGACUUCAAUAGUUCUTT against Krtap4-7", "z-score": "inactive: 0.545"}
{"sequence": "GCCACUGCACUAUUUAACUTT against Olfr1247", "z-score": "inactive: 0.0845"}
{"sequence": "GGAGAGUUUUAGAUGCCUCTT against Prnpip1", "z-score": "inactive: 0.171"}
{"sequence": "GGGACUCCCAGGCUGUAAATT against Zfp263", "z-score": "inactive: -0.667"}
{"sequence": "GCUAUGGCGCAUACUGCCATT against Olfr881", "z-score": "inactive: -0.673"}
{"sequence": "CGUGUGGUGUUGGUAUCAGTT against 4930540L03Rik", "z-score": "inactive: -0.151"}
{"sequence": "CCCAAUGAACAAGCUUAAGTT against Eif3s4", "z-score": "inactive: -0.039"}
{"sequence": "AGUCAAGACCCAUAGAAAATT against Ociad2", "z-score": "inactive: 0.132"}
{"sequence": "GGCUCGACUUGGAGAAAAGTT against D2Ertd391e", "z-score": "inactive: -2.59"}
{"sequence": "GGGAUGCGAGAUGAUCUGCTT against Scrg1", "z-score": "inactive: 0.768"}
{"sequence": "GGAUGAGGAAUUUUACACUTT against Klhl11", "z-score": "inactive: 0.136"}
{"sequence": "GCCAAUAUCUAUCUACUACTT against 4930405J24Rik", "z-score": "inactive: -0.352"}
{"sequence": "GGGAAGGGAUCCUAUAUUUTT against 2600001B17Rik", "z-score": "inactive: 2.41"}
{"sequence": "CCUACCCGAUUAUUCUUACTT against Tmem24", "z-score": "inactive: -0.135"}
{"sequence": "CCACCGUUGUGGAAGAAUCTT against 9130218O11Rik", "z-score": "inactive: -0.00621"}
{"sequence": "CCACUUUUAAAGGAAUGUGTT against Ncoa1", "z-score": "inactive: -0.0128"}
{"sequence": "GGCAUUGGAGAAUUGAAAATT against Sptlc2", "z-score": "inactive: 1.12"}
{"sequence": "GGUCUAAGACUAAAUAUCCTT against Sfxn1", "z-score": "inactive: -0.136"}
{"sequence": "GCAGAAAAUAAAUCGAAGGTT against Sgol2", "z-score": "inactive: -0.33"}
{"sequence": "GGGCUUUGUGGAUGCGAUUTT against Sec15l1", "z-score": "inactive: -0.215"}
{"sequence": "CGCUGUUUGUUCAAGAGGATT against Thbs1", "z-score": "inactive: -1.14"}
{"sequence": "CGCGAAUCUAUGAAUCAAATT against 2410002M20Rik", "z-score": "inactive: 0.359"}
{"sequence": "GGCAUACAGUUUUGGCAGUTT against Pilra", "z-score": "inactive: 0.692"}
{"sequence": "GGAUAUCAGGAACAUAGUATT against Leprel2", "z-score": "inactive: -0.263"}
{"sequence": "GCCUAAUAAAGAGCCUGUCTT against Tifp39", "z-score": "inactive: -0.88"}
{"sequence": "GCCAUGUACACAGACAGUUTT against Mcm10", "z-score": "inactive: -0.279"}
{"sequence": "GGAUGAGGAGGUCUUUUCUTT against Pde6c", "z-score": "inactive: 0.582"}
{"sequence": "GGAAAGAAGAUCGAUUACATT against Atp11c", "z-score": "inactive: -0.678"}
{"sequence": "GGUAACACUAUCAAGUCUUTT against Txndc2", "z-score": "inactive: -0.0702"}
{"sequence": "GGAGAACUUCUUAUUCAGATT against 1700026D08Rik", "z-score": "inactive: -0.133"}
{"sequence": "GGCCGUAGGACAGUAUACATT against Wnt5a", "z-score": "inactive: -0.601"}
{"sequence": "GCGACCCUUCCAUUGUAUUTT against Vsnl1", "z-score": "inactive: 1.8"}
{"sequence": "GGACAAAGAUAAUGGAAAATT against 4933407N01Rik", "z-score": "inactive: 0.929"}
{"sequence": "GGUGUUUGAGCAUAUUGGATT against Cat", "z-score": "inactive: -0.519"}
{"sequence": "GGCCACCUCUCGAAAGUUUTT against Cmya1", "z-score": "inactive: -1.47"}
{"sequence": "GCUCGAUUCAGAAAUCUACTT against Sgce", "z-score": "inactive: -0.611"}
{"sequence": "CCUUAUUUUACGGAACUGCTT against Olfr1018", "z-score": "inactive: 0.819"}
{"sequence": "CCAUGUUCGGACGUGGUCUTT against Shkbp1", "z-score": "inactive: -0.18"}
{"sequence": "GCAUCUUCGAGGUUUCAAATT against BC006583", "z-score": "inactive: 2.47"}
{"sequence": "GCCGAGUCUCAGCUUGUAATT against Dnajc3", "z-score": "inactive: -1.16"}
{"sequence": "GGAUCUGAGAUUGACCAAGTT against Usp1", "z-score": "inactive: 1.65"}
{"sequence": "GCUUAUGAGUUAUAUUGCATT against Olfr894", "z-score": "inactive: 0.0951"}
{"sequence": "CCACUUUAUGGCCAGCCUUTT against Nr2e3", "z-score": "inactive: -1.69"}
{"sequence": "CGAGUUUAAGGACAUCGAATT against Gjb2", "z-score": "inactive: -0.146"}
{"sequence": "CCCACAGAAUUUGGACAUATT against Ptcra", "z-score": "inactive: -0.0222"}
{"sequence": "GGUCGACGUGGACUUGACATT against Art4", "z-score": "inactive: -2.1"}
{"sequence": "GCACUGGACCAAAGAACGGTT against Ceecam1", "z-score": "inactive: 0.0138"}
{"sequence": "GGCCAGAGAGUCAAGGUUATT against A030007L22", "z-score": "inactive: -2.36"}
{"sequence": "GCCACAACCACCUGAACUUTT against Amigo", "z-score": "inactive: 0.657"}
{"sequence": "GGUUACUAGAAAAGUGUUGTT against Olfr1489", "z-score": "inactive: 1.71"}
{"sequence": "GGGUCAAUUUCUCAUGCCUTT against Icam5", "z-score": "inactive: 0.353"}
{"sequence": "CCGACAGCUCUAAAGGAACTT against Brunol6", "z-score": "inactive: -1.23"}
{"sequence": "CGUGCUGUUAUAAUGUUGUTT against Ccl12", "z-score": "inactive: 0.698"}
